PubChem BioAssay AID1259254, NCATS – 2017
The deposit covers about 59,000 reagents; this is an unselected part. About 1,550 of all reagents (2.6%) count as active. 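G2 share is only a proxy for re-replication; each gene was hit by three separate siRNAs, and active genes were retested.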 Reagents against one gene are numbered here. Not all columns of the deposit are shown. Not stated in the record: the amount of reagent.

- Test: 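Finding genes that stop cells copying their DNA twice in one cycle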 (primary screen)
- Cell system: human HCT116 colorectal cancer cells
- Reagent: single siRNA against human genes
- Duration: 3 days
- Detection: 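Imaged Hoechst DNA stain sorts each cell into a cycle phase by DNA amount; per plate, G2 fraction set to 0% for non-targeting and 100% for GMNN siRNA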
- Scale: G2 robust z-score: higher = more G2 cells, more excess DNA replication
- Active means: 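Active siRNAs have a G2 robust z of 5 or more median absolute deviations over the median, which in these data means about 38% or higher of GMNN control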

RAB3A (GeneID 5864) #1: G2 robust z-score = -0.36; Call = inactive
RAB3A (GeneID 5864) #2: G2 robust z-score = -0.176; Call = inactive
RAB3A (GeneID 5864) #3: G2 robust z-score = -0.264; Call = inactive
ASIC5 (GeneID 51802) #1: G2 robust z-score = 2.71; Call = inactive
ASIC5 (GeneID 51802) #2: G2 robust z-score = 0.0471; Call = inactive
ASIC5 (GeneID 51802) #3: G2 robust z-score = -0.0905; Call = inactive
LINC01014 (GeneID 100874330) #1: G2 robust z-score = 2.27; Call = inactive
LINC01014 (GeneID 100874330) #2: G2 robust z-score = 1.47; Call = inactive
LINC01014 (GeneID 100874330) #3: G2 robust z-score = 2.51; Call = inactive
RNASET2 (GeneID 8635) #1: G2 robust z-score = -0.0498; Call = inactive
RNASET2 (GeneID 8635) #2: G2 robust z-score = -1.42; Call = inactive
RNASET2 (GeneID 8635) #3: G2 robust z-score = -0.156; Call = inactive

A portion of the results above, as a working copy:
RAB3A (GeneID 5864) #2: G2 robust z-score = -0.176; Call = inactive
RAB3A (GeneID 5864) #3: G2 robust z-score = -0.264; Call = inactive
